Experimental data from PMC10318143 (Frontiers in Chemistry, 2023).

Test: general procedure: Fmoc solid-phase peptide synthesis; ChemMatrix Rink Amide resin (0.44 mmol/g loading); HCTU and DIPEA
Settings: conjugation step, 220 nm

Substance | final HPLC purity
PEPTIDE1{[CoA-Ac].E.E.D.I.[am]}$$$$V2.0 | 95.1%
PEPTIDE1{[CoA-Ac].E.D.E.I.[am]}$$$$V2.0 | 95.2%
PEPTIDE1{[CoA-Ac].D.E.E.L.[am]}$$$$V2.0 | 97.9%
PEPTIDE1{[CoA-Ac].E.E.D.L.[am]}$$$$V2.0 | 97.0%
PEPTIDE1{[CoA-Ac].E.S.E.L.[am]}$$$$V2.0 | 96.8%
PEPTIDE1{[CoA-Ac].D.D.E.I.[am]}$$$$V2.0 | 98.4%
PEPTIDE1{[CoA-Ac].E.E.E.L.[am]}$$$$V2.0 | 94.1%
PEPTIDE1{[CoA-Ac].D.E.E.I.[am]}$$$$V2.0 | 95.5%
PEPTIDE1{[CoA-Ac].E.D.D.I.[am]}$$$$V2.0 | 93.5%
PEPTIDE1{[CoA-Ac].E.D.E.L.[am]}$$$$V2.0 | 94.7%
PEPTIDE1{[CoA-Ac].P.D.E.L.[am]}$$$$V2.0 | 97.3%
PEPTIDE1{[CoA-Ac].E.D.Q.L.[am]}$$$$V2.0 | 100%

Some peptides are written in HELM: one residue between dots, names in brackets for other building blocks, links after the first $.
